Experimental data as given in paper PMC10864425.
Results are given in words; binding and its absence hold for the method and conditions named. In cells and extracts the contact can be indirect. Some entries that bind do so weakly or less than the wild type. Sequences can lack the tags named with a protein.

Protein sequences, listed by entry. Tags and fused reporters are not part of them.
UniProt Q969H0: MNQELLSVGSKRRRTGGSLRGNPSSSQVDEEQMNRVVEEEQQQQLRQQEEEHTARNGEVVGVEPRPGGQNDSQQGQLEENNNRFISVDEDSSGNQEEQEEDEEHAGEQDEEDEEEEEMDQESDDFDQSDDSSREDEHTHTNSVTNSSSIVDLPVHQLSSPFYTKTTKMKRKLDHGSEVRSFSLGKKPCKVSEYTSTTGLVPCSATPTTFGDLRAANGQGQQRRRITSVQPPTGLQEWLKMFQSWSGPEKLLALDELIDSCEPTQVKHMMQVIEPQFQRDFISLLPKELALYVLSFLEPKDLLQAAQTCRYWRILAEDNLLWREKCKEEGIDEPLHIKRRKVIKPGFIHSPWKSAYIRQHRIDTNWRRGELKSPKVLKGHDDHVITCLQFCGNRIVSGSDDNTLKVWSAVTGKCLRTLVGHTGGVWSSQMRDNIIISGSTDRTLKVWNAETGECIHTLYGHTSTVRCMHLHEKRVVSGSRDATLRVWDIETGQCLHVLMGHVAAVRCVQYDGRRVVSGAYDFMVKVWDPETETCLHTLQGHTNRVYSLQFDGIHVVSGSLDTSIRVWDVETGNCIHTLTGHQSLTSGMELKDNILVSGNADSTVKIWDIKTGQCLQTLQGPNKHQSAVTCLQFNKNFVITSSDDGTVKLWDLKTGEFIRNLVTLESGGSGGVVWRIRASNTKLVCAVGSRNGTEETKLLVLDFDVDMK

Biological target: T1, flag-tagged FBP1 (wild type) (human) (UniProt P09467)
T1 sequence: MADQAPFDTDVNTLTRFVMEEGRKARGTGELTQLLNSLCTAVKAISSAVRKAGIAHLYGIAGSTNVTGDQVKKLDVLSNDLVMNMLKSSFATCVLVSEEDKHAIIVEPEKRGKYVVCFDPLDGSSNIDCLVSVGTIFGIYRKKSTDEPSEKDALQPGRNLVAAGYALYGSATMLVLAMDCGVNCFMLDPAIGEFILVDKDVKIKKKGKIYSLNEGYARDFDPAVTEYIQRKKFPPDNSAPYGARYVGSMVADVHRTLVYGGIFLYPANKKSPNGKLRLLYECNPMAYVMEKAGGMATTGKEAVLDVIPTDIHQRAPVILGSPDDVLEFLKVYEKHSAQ
Experiment: co-IP; H1299 cells transfected 48 h with HA-NICD1 and flag-FBP1 (WT) or vector plasmids, then treated with MG-132 for 8 h; lysate on antibody cross-linked to protein A/G magnetic beads

binding: binds
Substance: E3 ubiquitin ligase FBXW7 (from UniProt Q969H0 1-707)
